Assay results published in publication PMC3651127.
These are yes or no findings as the source states them, for the method shown. Binding seen in cells or lysates may run through a third protein. Some results given as binding are weak or reduced against the parent protein; the word gives no strength. Sequences can lack the tags named with a protein.

Chains of the proteins cited; added tags and fusions are not shown.
UniProt P25963: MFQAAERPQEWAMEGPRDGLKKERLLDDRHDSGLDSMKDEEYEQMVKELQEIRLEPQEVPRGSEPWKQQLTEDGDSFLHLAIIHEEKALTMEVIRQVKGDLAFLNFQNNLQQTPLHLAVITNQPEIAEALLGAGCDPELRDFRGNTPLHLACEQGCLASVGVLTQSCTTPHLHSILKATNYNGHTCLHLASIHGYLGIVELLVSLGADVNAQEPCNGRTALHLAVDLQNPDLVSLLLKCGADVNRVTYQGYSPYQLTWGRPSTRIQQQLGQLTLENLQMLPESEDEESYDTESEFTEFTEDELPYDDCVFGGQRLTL

Target: T1, Flag-tagged DDRGK1 (human) (UniProt Q96HY6)
T1 sequence: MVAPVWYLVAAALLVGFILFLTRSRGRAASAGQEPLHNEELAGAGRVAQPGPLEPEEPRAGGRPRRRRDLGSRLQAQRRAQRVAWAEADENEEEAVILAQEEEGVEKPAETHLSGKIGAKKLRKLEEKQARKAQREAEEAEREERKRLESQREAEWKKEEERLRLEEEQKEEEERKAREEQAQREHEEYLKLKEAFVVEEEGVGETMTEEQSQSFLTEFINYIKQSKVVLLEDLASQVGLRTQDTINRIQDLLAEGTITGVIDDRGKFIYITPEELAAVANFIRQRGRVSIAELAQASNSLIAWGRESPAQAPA
Test: co-IP; 293T cells transfected with Flag-tagged construct; lysed in NP-40 lysis buffer; extract incubated with M2 anti-Flag resin overnight at 4°C; associated endogenous protein detected by immunoblotting

Substance: endogenous IκBα (from UniProt P25963 1-317)
- binding: binds
